Source: article PMC8911819

Protein sequences, listed by entry. Tags and fused reporters are not part of them. Residues count along the entry.
UniProt Q9EP73, 19-239: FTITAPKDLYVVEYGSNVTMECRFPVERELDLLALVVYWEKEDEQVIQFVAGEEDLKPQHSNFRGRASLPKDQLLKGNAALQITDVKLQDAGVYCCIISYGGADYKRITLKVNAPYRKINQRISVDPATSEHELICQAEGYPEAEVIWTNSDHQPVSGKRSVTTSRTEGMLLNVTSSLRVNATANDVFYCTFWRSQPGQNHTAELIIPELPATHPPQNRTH
UniProt Q9EP73, 19-290: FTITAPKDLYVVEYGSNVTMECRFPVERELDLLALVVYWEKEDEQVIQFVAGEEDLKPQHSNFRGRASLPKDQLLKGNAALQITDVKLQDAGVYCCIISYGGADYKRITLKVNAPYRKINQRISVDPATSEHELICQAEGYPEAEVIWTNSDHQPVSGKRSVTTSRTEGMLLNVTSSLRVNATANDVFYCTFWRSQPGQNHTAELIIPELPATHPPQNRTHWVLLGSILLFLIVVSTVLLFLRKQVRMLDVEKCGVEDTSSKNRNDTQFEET

Assays:
[1] = molecular target: PD-L1 (human) (human) (UniProt Q9NZQ7); assay: binding assay; conditions: Flow cytometry: 2x10^5 CT26 cells, 60 pmol FAM-labeled ligand in 300 uL PBS, 30 min, room temperature, two PBS washes; pH not stated for binding; single-stranded DNA
[2] = molecular target: PD-L1 (murine) (mouse) (UniProt Q9EP73); assay: binding assay; conditions: Flow cytometry: 2x10^5 CT26 cells, 60 pmol FAM-labeled ligand in 300 uL PBS, 30 min, room temperature, two PBS washes; pH not stated for binding; single-stranded DNA
[3] = molecular target: PD-L1 on CT26 cells (mouse (CT26 colon cancer cell line)) (UniProt Q9EP73); assay: flow cytometry; confocal microscopy; conditions: Flow cytometry: 2x10^5 CT26 cells, 60 pmol FAM-labeled ligand in 300 uL PBS, 30 min, room temperature, two PBS washes, pH not stated for binding, protein on the cell surface, single-stranded DNA

## ACGGGCCACATCAACTCATTGATAGACAATGCGTCCACTGCCCGT [PD-L1 aptamer (core, without T6 linker)]
[1]
  Kd: 0.0047 µM
[2]
  Kd: 0.072 µM

## TTTTTTACGGGCCACATCAACTCATTGATAGACAATGCGTCCACTGCCCGT [BSA-Apt]
[3]; 60 pmol in 300 uL, 2.5:1 aptamer:BSA (flow), 5'-SH conjugated to BSA amino group via sulfo-SMCC
  binding result: binds

## TTTTTTACGGGCCACATCAACTCATTGATAGACAATGCGTCCACTGCCCGT [free PD-L1 aptamer]
[3]; 60 pmol in 300 uL (flow), 5'-SH
  binding result: binds

The exact form of at least one protein or probe is not confirmed. For some of these results: Results from cells or extracts need not show a direct contact.
